Test results reported in PMC8213057, “Targeting ALK2: An Open Science Approach to Developing Therapeutics for the Treatment of Diffuse Intrinsic Pontine Glioma” (Journal of Medicinal Chemistry, 2020).

Sequences of proteins named here, by UniProt entry; tags and fusion partners are left off. A change or cut given only in a name is not applied to a line headed by its entry. Residues count along the entry.
UniProt P09619, 33-1106: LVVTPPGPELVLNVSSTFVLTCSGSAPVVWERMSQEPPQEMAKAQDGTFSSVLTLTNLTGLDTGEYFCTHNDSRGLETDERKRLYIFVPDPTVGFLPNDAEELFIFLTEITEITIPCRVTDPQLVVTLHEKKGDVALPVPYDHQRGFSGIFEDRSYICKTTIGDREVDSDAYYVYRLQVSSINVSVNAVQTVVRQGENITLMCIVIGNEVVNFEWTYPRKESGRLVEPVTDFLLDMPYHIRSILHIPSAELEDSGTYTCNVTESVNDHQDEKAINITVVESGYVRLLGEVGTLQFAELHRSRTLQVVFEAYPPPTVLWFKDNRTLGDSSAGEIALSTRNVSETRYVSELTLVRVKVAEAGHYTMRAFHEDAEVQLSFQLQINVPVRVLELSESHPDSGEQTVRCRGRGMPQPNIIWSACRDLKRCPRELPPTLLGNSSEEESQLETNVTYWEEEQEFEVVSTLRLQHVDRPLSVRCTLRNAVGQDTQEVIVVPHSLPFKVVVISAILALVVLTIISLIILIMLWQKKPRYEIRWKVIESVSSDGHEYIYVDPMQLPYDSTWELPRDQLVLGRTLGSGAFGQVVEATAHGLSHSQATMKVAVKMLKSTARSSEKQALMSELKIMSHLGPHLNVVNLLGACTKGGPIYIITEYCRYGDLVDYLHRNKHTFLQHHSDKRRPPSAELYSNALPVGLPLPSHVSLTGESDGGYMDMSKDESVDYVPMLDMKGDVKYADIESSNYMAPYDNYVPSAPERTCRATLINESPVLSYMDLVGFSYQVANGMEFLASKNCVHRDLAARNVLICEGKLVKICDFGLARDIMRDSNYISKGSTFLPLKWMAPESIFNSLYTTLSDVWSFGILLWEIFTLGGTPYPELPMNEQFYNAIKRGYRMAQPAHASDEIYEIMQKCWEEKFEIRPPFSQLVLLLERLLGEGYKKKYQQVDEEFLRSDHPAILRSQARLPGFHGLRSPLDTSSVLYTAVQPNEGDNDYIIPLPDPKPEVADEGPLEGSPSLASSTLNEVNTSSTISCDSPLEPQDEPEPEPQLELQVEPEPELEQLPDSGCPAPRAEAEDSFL
UniProt Q09013: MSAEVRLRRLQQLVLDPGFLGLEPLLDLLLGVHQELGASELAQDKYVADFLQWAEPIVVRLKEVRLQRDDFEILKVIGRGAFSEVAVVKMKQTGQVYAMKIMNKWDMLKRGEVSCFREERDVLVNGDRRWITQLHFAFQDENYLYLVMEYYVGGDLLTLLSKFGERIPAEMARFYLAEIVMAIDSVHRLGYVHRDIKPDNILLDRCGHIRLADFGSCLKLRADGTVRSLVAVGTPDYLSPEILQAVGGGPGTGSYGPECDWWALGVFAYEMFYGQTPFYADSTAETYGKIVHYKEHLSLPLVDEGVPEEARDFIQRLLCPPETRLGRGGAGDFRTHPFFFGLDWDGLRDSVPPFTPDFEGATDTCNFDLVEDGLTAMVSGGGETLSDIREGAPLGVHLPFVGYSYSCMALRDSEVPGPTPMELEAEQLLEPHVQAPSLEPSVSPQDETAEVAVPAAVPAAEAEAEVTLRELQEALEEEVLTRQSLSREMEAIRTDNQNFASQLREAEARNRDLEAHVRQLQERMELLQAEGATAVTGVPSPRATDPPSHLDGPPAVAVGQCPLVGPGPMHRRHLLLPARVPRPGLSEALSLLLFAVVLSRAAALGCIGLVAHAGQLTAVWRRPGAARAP
UniProt P31751: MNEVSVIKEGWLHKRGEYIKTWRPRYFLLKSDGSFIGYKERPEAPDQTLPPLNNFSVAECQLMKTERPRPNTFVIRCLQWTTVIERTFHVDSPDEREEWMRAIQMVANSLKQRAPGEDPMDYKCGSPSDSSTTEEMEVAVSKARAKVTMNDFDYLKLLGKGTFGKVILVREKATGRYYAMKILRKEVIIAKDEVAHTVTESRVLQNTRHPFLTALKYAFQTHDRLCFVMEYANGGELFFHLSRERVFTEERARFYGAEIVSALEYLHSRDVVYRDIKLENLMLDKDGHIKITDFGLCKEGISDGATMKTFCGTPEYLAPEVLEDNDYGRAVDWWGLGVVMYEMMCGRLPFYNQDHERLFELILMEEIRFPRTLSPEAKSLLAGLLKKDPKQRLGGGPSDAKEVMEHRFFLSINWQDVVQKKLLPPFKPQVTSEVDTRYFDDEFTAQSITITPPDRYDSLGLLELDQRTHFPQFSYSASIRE
UniProt O60674: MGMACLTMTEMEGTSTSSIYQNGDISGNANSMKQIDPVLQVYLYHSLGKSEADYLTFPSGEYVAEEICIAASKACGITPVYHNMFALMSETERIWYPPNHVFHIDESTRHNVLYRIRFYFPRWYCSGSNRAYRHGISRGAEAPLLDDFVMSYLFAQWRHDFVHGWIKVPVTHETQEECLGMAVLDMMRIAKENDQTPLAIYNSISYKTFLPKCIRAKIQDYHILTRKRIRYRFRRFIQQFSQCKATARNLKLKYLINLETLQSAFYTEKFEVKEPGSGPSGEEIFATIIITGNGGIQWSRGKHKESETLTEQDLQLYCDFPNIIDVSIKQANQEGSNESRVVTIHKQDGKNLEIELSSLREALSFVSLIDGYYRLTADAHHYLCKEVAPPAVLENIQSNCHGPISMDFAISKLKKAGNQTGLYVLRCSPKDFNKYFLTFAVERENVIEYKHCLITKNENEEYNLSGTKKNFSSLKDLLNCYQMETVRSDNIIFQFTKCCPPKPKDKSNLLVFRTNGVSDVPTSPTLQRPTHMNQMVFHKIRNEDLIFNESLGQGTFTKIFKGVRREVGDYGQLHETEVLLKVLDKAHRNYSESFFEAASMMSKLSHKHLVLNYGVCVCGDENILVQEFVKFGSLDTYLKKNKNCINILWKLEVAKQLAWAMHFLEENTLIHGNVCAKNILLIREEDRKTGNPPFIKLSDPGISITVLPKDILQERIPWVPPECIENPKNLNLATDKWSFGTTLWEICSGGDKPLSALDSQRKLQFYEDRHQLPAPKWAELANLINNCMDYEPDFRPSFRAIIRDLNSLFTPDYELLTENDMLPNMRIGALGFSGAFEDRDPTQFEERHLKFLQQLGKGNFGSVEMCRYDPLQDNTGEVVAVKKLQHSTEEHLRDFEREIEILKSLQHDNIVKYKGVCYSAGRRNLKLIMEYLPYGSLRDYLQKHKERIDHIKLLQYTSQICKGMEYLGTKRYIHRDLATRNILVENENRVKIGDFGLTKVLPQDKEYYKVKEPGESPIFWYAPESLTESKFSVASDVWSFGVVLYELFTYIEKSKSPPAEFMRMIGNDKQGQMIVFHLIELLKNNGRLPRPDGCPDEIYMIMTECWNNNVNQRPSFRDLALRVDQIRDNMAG
UniProt O96013: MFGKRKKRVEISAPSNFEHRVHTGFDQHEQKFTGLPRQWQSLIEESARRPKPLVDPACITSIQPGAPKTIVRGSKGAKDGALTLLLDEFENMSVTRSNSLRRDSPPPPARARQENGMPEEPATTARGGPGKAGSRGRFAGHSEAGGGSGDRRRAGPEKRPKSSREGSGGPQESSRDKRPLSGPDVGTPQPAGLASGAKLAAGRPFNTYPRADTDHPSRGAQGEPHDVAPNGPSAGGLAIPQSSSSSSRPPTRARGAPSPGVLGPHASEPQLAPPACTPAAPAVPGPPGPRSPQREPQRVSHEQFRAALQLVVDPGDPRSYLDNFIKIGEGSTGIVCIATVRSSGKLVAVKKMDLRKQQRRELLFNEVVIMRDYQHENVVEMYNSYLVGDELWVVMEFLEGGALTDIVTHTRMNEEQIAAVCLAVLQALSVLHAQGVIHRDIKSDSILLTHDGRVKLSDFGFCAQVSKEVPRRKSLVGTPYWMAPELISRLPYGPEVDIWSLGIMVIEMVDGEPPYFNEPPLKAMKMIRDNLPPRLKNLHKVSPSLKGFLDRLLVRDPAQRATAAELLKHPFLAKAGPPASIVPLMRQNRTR
UniProt Q15303, 26-1308: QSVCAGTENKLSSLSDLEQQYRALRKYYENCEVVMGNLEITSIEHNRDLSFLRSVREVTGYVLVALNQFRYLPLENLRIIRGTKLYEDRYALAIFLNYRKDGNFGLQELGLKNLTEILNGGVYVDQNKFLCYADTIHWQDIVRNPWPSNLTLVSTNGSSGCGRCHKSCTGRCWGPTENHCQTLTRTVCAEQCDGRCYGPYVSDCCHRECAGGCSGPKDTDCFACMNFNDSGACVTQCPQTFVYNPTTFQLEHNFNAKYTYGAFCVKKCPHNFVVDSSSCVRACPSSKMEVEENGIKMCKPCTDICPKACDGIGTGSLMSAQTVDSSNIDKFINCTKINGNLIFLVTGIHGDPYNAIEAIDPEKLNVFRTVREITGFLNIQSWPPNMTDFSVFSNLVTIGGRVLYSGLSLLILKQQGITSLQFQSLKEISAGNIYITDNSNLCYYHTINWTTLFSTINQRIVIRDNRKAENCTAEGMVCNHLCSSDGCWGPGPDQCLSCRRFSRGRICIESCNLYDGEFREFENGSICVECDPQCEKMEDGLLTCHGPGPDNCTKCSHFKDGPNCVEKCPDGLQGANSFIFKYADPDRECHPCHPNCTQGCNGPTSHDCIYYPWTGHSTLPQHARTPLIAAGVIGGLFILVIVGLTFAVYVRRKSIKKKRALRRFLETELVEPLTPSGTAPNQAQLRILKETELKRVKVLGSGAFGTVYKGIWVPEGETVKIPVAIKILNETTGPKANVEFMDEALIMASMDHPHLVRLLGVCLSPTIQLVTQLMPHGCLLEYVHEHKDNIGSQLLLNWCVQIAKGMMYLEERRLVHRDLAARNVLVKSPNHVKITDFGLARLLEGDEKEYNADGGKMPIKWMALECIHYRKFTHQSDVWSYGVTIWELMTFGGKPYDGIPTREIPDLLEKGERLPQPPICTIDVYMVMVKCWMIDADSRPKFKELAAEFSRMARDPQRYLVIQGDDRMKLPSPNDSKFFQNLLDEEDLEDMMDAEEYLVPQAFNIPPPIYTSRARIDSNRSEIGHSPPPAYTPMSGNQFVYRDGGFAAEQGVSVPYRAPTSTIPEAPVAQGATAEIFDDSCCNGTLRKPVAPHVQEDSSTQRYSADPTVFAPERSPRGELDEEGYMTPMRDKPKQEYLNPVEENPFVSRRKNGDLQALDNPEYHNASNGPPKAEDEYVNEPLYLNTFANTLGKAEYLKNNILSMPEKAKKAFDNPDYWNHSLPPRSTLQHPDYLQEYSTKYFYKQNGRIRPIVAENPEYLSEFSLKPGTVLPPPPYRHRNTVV
UniProt P14616, 27-1297: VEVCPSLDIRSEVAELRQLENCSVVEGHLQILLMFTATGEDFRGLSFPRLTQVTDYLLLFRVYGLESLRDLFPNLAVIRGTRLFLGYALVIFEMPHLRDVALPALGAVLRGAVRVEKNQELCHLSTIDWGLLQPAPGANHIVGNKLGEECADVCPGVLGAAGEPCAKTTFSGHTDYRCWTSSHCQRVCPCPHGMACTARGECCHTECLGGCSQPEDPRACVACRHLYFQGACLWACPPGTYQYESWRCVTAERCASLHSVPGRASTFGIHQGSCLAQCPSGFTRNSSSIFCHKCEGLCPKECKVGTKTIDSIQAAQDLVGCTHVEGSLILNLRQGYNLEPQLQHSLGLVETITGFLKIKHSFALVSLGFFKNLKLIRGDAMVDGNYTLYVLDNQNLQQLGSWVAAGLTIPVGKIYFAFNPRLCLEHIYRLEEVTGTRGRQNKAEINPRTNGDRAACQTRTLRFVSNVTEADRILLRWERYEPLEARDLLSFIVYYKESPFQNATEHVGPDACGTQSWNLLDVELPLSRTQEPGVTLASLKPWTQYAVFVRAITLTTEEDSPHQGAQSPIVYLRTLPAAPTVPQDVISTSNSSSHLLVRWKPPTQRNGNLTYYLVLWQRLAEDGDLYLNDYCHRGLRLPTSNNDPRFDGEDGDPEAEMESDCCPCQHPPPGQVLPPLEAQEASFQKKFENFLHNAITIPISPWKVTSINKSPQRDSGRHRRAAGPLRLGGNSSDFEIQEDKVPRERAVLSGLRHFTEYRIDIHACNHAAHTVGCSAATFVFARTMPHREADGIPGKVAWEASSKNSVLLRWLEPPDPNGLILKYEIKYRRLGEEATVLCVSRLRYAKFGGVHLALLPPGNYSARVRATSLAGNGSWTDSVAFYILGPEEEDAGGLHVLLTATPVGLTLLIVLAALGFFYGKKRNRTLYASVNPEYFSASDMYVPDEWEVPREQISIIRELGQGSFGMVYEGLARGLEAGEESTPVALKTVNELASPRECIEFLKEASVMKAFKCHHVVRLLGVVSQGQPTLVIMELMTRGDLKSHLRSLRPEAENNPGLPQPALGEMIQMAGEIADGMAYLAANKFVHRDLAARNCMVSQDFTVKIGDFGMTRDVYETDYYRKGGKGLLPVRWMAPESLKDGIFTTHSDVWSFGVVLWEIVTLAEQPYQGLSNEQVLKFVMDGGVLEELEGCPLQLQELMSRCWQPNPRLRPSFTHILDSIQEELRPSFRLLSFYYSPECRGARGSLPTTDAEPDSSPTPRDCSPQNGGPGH

How the values were obtained:
MLCK2/MYLK2 = MLCK2/MYLK2 (Homo sapiens, UniProt Q9H1R3); test: biochemical; conditions: read-out: % enzyme activity, 1 μM; Run 1, Run 2
PBK/TOPK = PBK/TOPK (Homo sapiens, UniProt Q96KB5); test: biochemical; conditions: read-out: % enzyme activity, 1 μM; Run 1, Run 2
TEC = TEC (Homo sapiens, UniProt P42680); conditions: 1 μM; Run 1, Run 2
SRPK2 = SRPK2 (Homo sapiens, UniProt P78362); conditions: 1 μM; Run 1, Run 2
TRKA = TRKA (Homo sapiens, UniProt P04629); conditions: 1 μM; Run 1, Run 2
PDGFRb [1] = target: T1, PDGFRb (Homo sapiens, UniProt P09619); test: biochemical; conditions: read-out: % enzyme activity, 1 μM; Run 1, Run 2
PHKg2 = PHKg2 (Homo sapiens, UniProt P15735); test: biochemical; conditions: read-out: % enzyme activity, 1 μM; Run 1, Run 2
LOK/STK10 = LOK/STK10 (Homo sapiens, UniProt O94804); conditions: 1 μM; Run 1, Run 2
MEKK6 = MEKK6 (Homo sapiens, UniProt O95382); conditions: 1 μM; Run 1, Run 2
VRK2 = VRK2 (Homo sapiens, UniProt Q86Y07); conditions: 1 μM; Run 1, Run 2
DMPK = DMPK (Homo sapiens, UniProt Q09013); test: biochemical; conditions: read-out: % enzyme activity, 1 μM; Run 1, Run 2
AKT2 = AKT2 (Homo sapiens, UniProt P31751); conditions: 1 μM; Run 1, Run 2
MEK3 = MEK3 (Homo sapiens, UniProt P46734); test: biochemical; conditions: read-out: % enzyme activity, 1 μM; Run 1, Run 2
MAK = MAK (Homo sapiens, UniProt P20794); conditions: 1 μM; Run 1, Run 2
CDK2/cyclin A = CDK2/cyclin A (Homo sapiens, UniProt P24941); conditions: 1 μM; Run 1, Run 2
SGK2 = SGK2 (Homo sapiens, UniProt Q9HBY8); test: biochemical; conditions: read-out: % enzyme activity, 1 μM; Run 1, Run 2
FAK/PTK2 = FAK/PTK2 (Homo sapiens, UniProt Q05397); test: biochemical; conditions: read-out: % enzyme activity, 1 μM; Run 1, Run 2
EPHA5 = EPHA5 (Homo sapiens, UniProt P54756); conditions: 1 μM; Run 1, Run 2
CK1epsilon = CK1epsilon (Homo sapiens, UniProt P49674); test: biochemical; conditions: read-out: % enzyme activity, 1 μM; Run 1, Run 2
P38b/MAPK11 = P38b/MAPK11 (Homo sapiens, UniProt Q15759); conditions: 1 μM; Run 1, Run 2
PKCepsilon = PKCepsilon (Homo sapiens, UniProt Q02156); test: biochemical; conditions: read-out: % enzyme activity, 1 μM; Run 1, Run 2
CDK4/cyclin D1 = CDK4/cyclin D1 (Homo sapiens, UniProt P11802); test: biochemical; conditions: read-out: % enzyme activity, 1 μM; Run 1, Run 2
CAMK2b = CAMK2b (Homo sapiens, UniProt Q13554); conditions: 1 μM; Run 1, Run 2
GRK3 = GRK3 (Homo sapiens, UniProt P35626); test: biochemical; conditions: read-out: % enzyme activity, 1 μM; Run 1, Run 2
VRK1 [2] = target: T2, VRK1 (Homo sapiens, UniProt Q99986); conditions: 1 μM; Run 1, Run 2
STK21/CIT = STK21/CIT (Homo sapiens, UniProt O14578); conditions: 1 μM; Run 1, Run 2
JAK2 = JAK2 (Homo sapiens, UniProt O60674); conditions: 1 μM; Run 1, Run 2
RSK4 = RSK4 (Homo sapiens, UniProt Q9UK32); test: biochemical; conditions: read-out: % enzyme activity, 1 μM; Run 1, Run 2
PLK4/SAK = PLK4/SAK (Homo sapiens, UniProt O00444); test: biochemical; conditions: read-out: % enzyme activity, 1 μM; Run 1, Run 2
CAMK4 = CAMK4 (Homo sapiens, UniProt Q16566); conditions: 1 μM; Run 1, Run 2
PDGFRb [3] = target: T1, PDGFRb; conditions: 1 μM; Run 1, Run 2
LATS1 = LATS1 (Homo sapiens, UniProt O95835); conditions: 1 μM; Run 1, Run 2
P38d/MAPK13 = P38d/MAPK13 (Homo sapiens, UniProt O15264); test: biochemical; conditions: read-out: % enzyme activity, 1 μM; Run 1, Run 2
PKN2/PRK2 = PKN2/PRK2 (Homo sapiens, UniProt Q16513); test: biochemical; conditions: read-out: % enzyme activity, 1 μM; Run 1, Run 2
VRK1 [4] = target: T2, VRK1; test: biochemical; conditions: read-out: % enzyme activity, 1 μM; Run 1, Run 2
MYO3b = MYO3b (Homo sapiens, UniProt Q8WXR4); test: biochemical; conditions: read-out: % enzyme activity, 1 μM; Run 1, Run 2
ROS/ROS1 = ROS/ROS1 (Homo sapiens, UniProt P08922); test: biochemical; conditions: read-out: % enzyme activity, 1 μM; Run 1, Run 2
STK22D/TSSK1 = STK22D/TSSK1 (Homo sapiens, UniProt Q9BXA7); test: biochemical; conditions: read-out: % enzyme activity, 1 μM; Run 1, Run 2
TAOK2/TAO1 = TAOK2/TAO1 (Homo sapiens, UniProt Q9UL54); conditions: 1 μM; Run 1, Run 2
PAK4 = PAK4 (Homo sapiens, UniProt O96013); conditions: 1 μM; Run 1, Run 2
ERBB4/HER4 = ERBB4/HER4 (Homo sapiens, UniProt Q15303); test: biochemical; conditions: read-out: % enzyme activity, 1 μM; Run 1, Run 2
IRR/INSRR = IRR/INSRR (Homo sapiens, UniProt P14616); test: biochemical; conditions: read-out: % enzyme activity, 1 μM; Run 1, Run 2
MLK2/MAP3K10 = MLK2/MAP3K10 (Homo sapiens, UniProt Q02779); conditions: 1 μM; Run 1, Run 2

COc1cc(-c2cncc(-c3ccc(N4CCN(C(C)C)CC4)cc3)c2C)cc(F)c1C(N)=O [Compound 26b, 2-Fluoro-4-(5-(4-(4-isopropylpiperazin-1-yl)phenyl)-4-methylpyridin-3-yl)-6-methoxybenzamide]
remaining activity at 1 µM (MLCK2/MYLK2): 82.3%
remaining activity at 1 µM (PBK/TOPK): 95%
% enzyme activity (TEC): 124.33%
% enzyme activity (SRPK2): 95.75%
% enzyme activity (TRKA): 89.07%
remaining activity at 1 µM (PDGFRb [1]): 90.1%
remaining activity at 1 µM (PHKg2): 95.8%
% enzyme activity (LOK/STK10): 61.54%
% enzyme activity (MEKK6): 89.86%
% enzyme activity (VRK2): 85.61%
remaining activity at 1 µM (DMPK): 112%
% enzyme activity (AKT2): 93.58%
remaining activity at 1 µM (MEK3): 105%
% enzyme activity (MAK): 110.09%
% enzyme activity (CDK2/cyclin A): 92.29%
remaining activity at 1 µM (SGK2): 95.8%
remaining activity at 1 µM (FAK/PTK2): 87.7%
% enzyme activity (EPHA5): 94.61%
remaining activity at 1 µM (CK1epsilon): 96%
% enzyme activity (P38b/MAPK11): 99.99%
remaining activity at 1 µM (PKCepsilon): 97.8%
remaining activity at 1 µM (CDK4/cyclin D1): 100%
% enzyme activity (CAMK2b): 86.76%
remaining activity at 1 µM (GRK3): 97.9%
% enzyme activity (VRK1 [2]): 108.29%
% enzyme activity (STK21/CIT): 99.05%
% enzyme activity (JAK2): 92.56%
remaining activity at 1 µM (RSK4): 97.3%
remaining activity at 1 µM (PLK4/SAK): 94%
% enzyme activity (CAMK4): 101.77%
% enzyme activity (PDGFRb [3]): 88.87%
% enzyme activity (LATS1): 99.48%
remaining activity at 1 µM (P38d/MAPK13): 104%
remaining activity at 1 µM (PKN2/PRK2): 103%
remaining activity at 1 µM (VRK1 [4]): 109%
remaining activity at 1 µM (MYO3b): 85%
remaining activity at 1 µM (ROS/ROS1): 95.6%
remaining activity at 1 µM (STK22D/TSSK1): 101%
% enzyme activity (TAOK2/TAO1): 81.16%
% enzyme activity (PAK4): 103.30%
remaining activity at 1 µM (ERBB4/HER4): 101%
remaining activity at 1 µM (IRR/INSRR): 124%
% enzyme activity (MLK2/MAP3K10): 106.44%
